Laboratory results as given in PubChem BioAssay AID256 (DTP/NCI, 2004).
The list does not hold the whole screen: it is rich in T/C values a quarter to a half above the control, in often repeated tests (any T/C) and in doses without a T/C. Further doses and runs are listed elsewhere. T/C: endpoint of the treated group in % of that of the vehicle group. Some doses have a count of surviving animals in place of a T/C: the source holds a T/C of zero for them, seemingly a mark for toxic or unscored doses. Some survivor counts are full or nearly so, which does not show that the dose was tolerated: the source hardly ever lists a survival T/C far under the control, and the zero likely stands for such cases as well. Survivors were counted at the toxicity check, usually on the fifth day, unless a day is given; later deaths do not show. Schedule codes are those of the source, read here as Q, the interval in days (D) or hours (H), X, the number of doses. Some entries hold several experiments; the results are listed from low to high. For survival time, the PubChem record calls one and a half times the control and up active, and a quarter to a half above the control has no call in these data; cut-offs in other NCI protocols can differ.

System: CD2F1 mice, L1210 leukemia ip, survival T/C
Test: NCI In Vivo Anticancer Drug Screen. Data for tumor model L1210 Leukemia (intraperitoneal) in CD2F1 (CDF1) mice
Settings: T/C endpoint: mean survival time, higher T/C = longer survival
How it was run: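 Vehicle-treated tumor-bearing mice served as controls (C) for compound-treated mice (T). Reported figure is T divided by C.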

[1] = dose: 200.0 mg/kg/injection, schedule: Q01DX005 (ip), vehicle: other

SMILES: CC(=O)Oc1ccc(Nc2c3ccccc3nc3ccccc23)cc1
- T/C (dose: 29.3 mg/kg/injection, schedule: Q01DX009 (ip), vehicle: saline with Tween-80): 135 and 141 % of control
- T/C (dose: 44.0 mg/kg/injection, schedule: Q01DX009 (ip), vehicle: saline with Tween-80): 129 % of control
- T/C (dose: 66.0 mg/kg/injection, schedule: Q01DX009 (ip), vehicle: saline with Tween-80): 135 % of control
- survivor count (dose: 100.0 mg/kg/injection, schedule: Q01DX009 (ip), vehicle: saline with Tween-80): 1 of 6
- survivor count (dose: 150.0 mg/kg/injection, schedule: Q01DX001 (ip), vehicle: saline with Tween-80): 1 of 10
- survivor count (dose: 150.0 mg/kg/injection, schedule: Q01DX009 (ip), vehicle: saline with Tween-80): 0 of 6 and 7 of 10
- survivor count (dose: 200.0 mg/kg/injection, schedule: Q04DX002 (ip), vehicle: saline with Tween-80): 2 of 3
- survivor count (dose: 225.0 mg/kg/injection, schedule: Q01DX001 (ip), vehicle: saline with Tween-80): 5 of 10
- survivor count (dose: 400.0 mg/kg/injection, schedule: Q04DX002 (ip), vehicle: saline with Tween-80): 0 of 3

SMILES: Nc1ccn([C@H]2C[C@@H](CO)[C@H](O)[C@@H]2O)c(=O)n1
- T/C (dose: 100.0 mg/kg/injection, schedule: Q01DX009 (ip), vehicle: saline): 136 % of control
- T/C (dose: 300.0 mg/kg/injection, schedule: Q01DX009 (ip), vehicle: saline): 149 % of control

SMILES: CC12CCC(OC3CCCCO3)CC1=CCC1C2CCC2(C)C1CCC21CCNP(=O)(N(CCCl)CCCl)O1 (stereo unspecified)
- survivor count [1]: 3 of 3

SMILES: CCC(C)C(CO)c1ccccc1 (stereo unspecified)
- survivor count (dose: 200.0 mg/kg/injection, schedule: Q01DX009 (ip), vehicle: saline with Tween-80): 0 of 6

SMILES: Cc1[nH]nc2c1CCCC2
- survivor count (dose: 400.0 mg/kg/injection, schedule: Q01DX009 (ip), vehicle: other): 0 of 6

SMILES: CCCCCCCCCCCCCCCCOC(=O)c1cc([N+](=O)[O-])cc([N+](=O)[O-])c1Sc1ncnc2nc[nH]c12
- T/C (dose: 62.5 mg/kg/injection, schedule: Q01DX005 (ip), vehicle: other): 127 % of control
- T/C (dose: 100.0 mg/kg/injection, schedule: Q01DX005 (ip), vehicle: other): 140 % of control
- T/C (dose: 125.0 mg/kg/injection, schedule: Q01DX005 (ip), vehicle: other): 141 % of control
- T/C [1]: 134 and 136 % of control
- survivor count (dose: 400.0 mg/kg/injection, schedule: Q01DX005 (ip), vehicle: other): 3 of 6

SMILES: CCCCCCCCCCCCCCCCCC(=O)NN
- T/C (dose: 400.0 mg/kg/injection, schedule: Q01DX009 (ip), vehicle: saline with Tween-80): 130 and 141 % of control

SMILES: Oc1cc2c3c(c1)c1cc4c(cc1c[n+]3CC2)OCO4
- T/C (dose: 6.25 mg/kg/injection, schedule: Q01DX009 (ip), vehicle: other): 125 % of control
- T/C (dose: 6.25 mg/kg/injection, schedule: Q01DX009 (ip), vehicle: water): 126 % of control
- T/C (dose: 12.5 mg/kg/injection, schedule: Q01DX009 (ip), vehicle: other): 139 % of control
- T/C (dose: 25.0 mg/kg/injection, schedule: Q01DX009 (ip), vehicle: water): 137 % of control
- survivor count (dose: 50.0 mg/kg/injection, schedule: Q01DX009 (ip), vehicle: other): 5 of 6
- survivor count (dose: 50.0 mg/kg/injection, schedule: Q01DX009 (ip), vehicle: water): 3 of 6

SMILES: COc1cccc2c1C(=O)c1c(O)c3c(c(O)c1C2=O)C[C@@](O)(C(=O)CO)C[C@@H]3OC1CC(NC=O)C(O)C(C)O1 (stereo partly specified)
- survivor count (dose: 3.13 mg/kg/injection, schedule: Q04DX003 (ip), vehicle: water): 6 of 6

SMILES: O=C(Nc1ccc(C(=O)O)cc1)Nc1ccc(F)c(Cl)c1
- survivor count (dose: 400.0 mg/kg/injection, schedule: Q04DX003 (ip), vehicle: Klucel (hydroxypropylcellulose) (HPC)): 2 of 6

SMILES: CC(=O)OCC1OC([S-])C(OC(C)=O)C(OC(C)=O)C1OC(C)=O.CC[PH+](CC)CC.CC[PH+](CC)CC.[Au].[Au] (stereo unspecified)
- survivor count (dose: 20.0 mg/kg/injection, schedule: Q01DX009 (ip), vehicle: Klucel (hydroxypropylcellulose) (HPC)): 0 of 10 and 0 of 6

SMILES: CN(C)CC1CCCCC1OC(=O)c1ccccc1 (stereo unspecified)
- survivor count (dose: 200.0 mg/kg/injection, schedule: Q04DX003 (ip), vehicle: water): 0 of 3
- survivor count (dose: 400.0 mg/kg/injection, schedule: Q04DX003 (ip), vehicle: water): 0 of 3
